According to patent US6858382 (GENERAL HOSPITAL, dated 2005):
No constants are given. Whether binding was seen depends on the method and setting. Some results given as binding are weak or reduced against the parent protein; the word gives no strength.

Amino acid sequences for entries named in this document (tags omitted). A change or cut given only in a name is not applied to a line headed by its entry.
UniProt P0A7C2: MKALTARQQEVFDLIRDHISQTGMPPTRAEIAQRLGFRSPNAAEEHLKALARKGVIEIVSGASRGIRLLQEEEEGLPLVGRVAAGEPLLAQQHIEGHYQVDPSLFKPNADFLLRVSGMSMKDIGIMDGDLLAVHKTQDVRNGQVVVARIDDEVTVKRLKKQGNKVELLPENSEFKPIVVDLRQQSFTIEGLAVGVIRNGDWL

Biological target: LexA-Max (UniProt P0A7C2)
Experiment: yeast two-bait interaction trap, LexAop-LacZ reporter

binding: binds
B1: B42-Mxi1 (other, UniProt P50539 1-228, looked up, not shown: large carriers)
chain: MERVKMINVQRLLEAAEFLERRERECEHGYASSFPSMPSPRLQHSKPPRRLSRAQKHSSGSSNTSTANRSTHNELEKNRRAHLRLCLERLKVLIPLGPDCTRHTTLGLLNKAKAHIKKLEEAERKSQHQLENLEREQRFLKWRLEQLQGPQEMERIRMDSIGSTISSDRSDSEREEIEVDVESTEFSHGEVDNISTTSISDIDDHSSLPSIGSDEGYSSASVKLSFTS
notes: Yeast two-hybrid prey, used as a positive control with Max
